One molecule from publication doi:10.1101/2021.05.31.446389 can be followed below.

In the experiment the target is GST-tagged 14-3-3. Put plainly: pull-down.

Results are given in words; binding and its absence hold for the method and conditions named. In cells and extracts the contact can be indirect. A result given as binding can be weak or reduced; the word gives no strength.

B1: cellular USP8 (enzyme, UniProt P40818 1-1118)
chain: MPAVASVPKELYLSSSLKDLNKKTEVKPEKISTKSYVHSALKIFKTAEECRLDRDEERAYVLYMKYVTVYNLIKKRPDFKQQQDYFHSILGPGNIKKAVEEAERLSESLKLRYEEAEVRKKLEEKDRQEEAQRLQQKRQETGREDGGTLAKGSLENVLDSKDKTQKSNGEKNEKCETKEKGAITAKELYTMMTDKNISLIIMDARRMQDYQDSCILHSLSVPEEAISPGVTASWIEAHLPDDSKDTWKKRGNVEYVVLLDWFSSAKDLQIGTTLRSLKDALFKWESKTVLRNEPLVLEGGYENWLLCYPQYTTNAKVTPPPRRQNEEVSISLDFTYPSLEESIPSKPAAQTPPASIEVDENIELISGQNERMGPLNISTPVEPVAASKSDVSPIIQPVPSIKNVPQIDRTKKPAVKLPEEHRIKSESTNHEQQSPQSGKVIPDRSTKPVVFSPTLMLTDEEKARIHAETALLMEKNKQEKELRERQQEEQKEKLRKEEQEQKAKKKQEAEENEITEKQQKAKEEMEKKESEQAKKEDKETSAKRGKEITGVKRQSKSEHETSDAKKSVEDRGKRCPTPEIQKKSTGDVPHTSVTGDSGSGKPFKIKGQPESGILRTGTFREDTDDTERNKAQREPLTRARSEEMGRIVPGLPSGWAKFLDPITGTFRYYHSPTNTVHMYPPEMAPSSAPPSTPPTHKAKPQIPAERDREPSKLKRSYSSPDITQAIQEEEKRKPTVTPTVNRENKPTCYPKAEISRLSASQIRNLNPVFGGSGPALTGLRNLGNTCYMNSILQCLCNAPHLADYFNRNCYQDDINRSNLLGHKGEVAEEFGIIMKALWTGQYRYISPKDFKITIGKINDQFAGYSQQDSQELLLFLMDGLHEDLNKADNRKRYKEENNDHLDDFKAAEHAWQKHKQLNESIIVALFQGQFKSTVQCLTCHKKSRTFEAFMYLSLPLASTSKCTLQDCLRLFSKEEKLTDNNRFYCSHCRARRDSLKKIEIWKLPPVLLVHLKRFSYDGRWKQKLQTSVDFPLENLDLSQYVIGPKNNLKKYNLFSVSNHYGGLDGGHYTAYCKNAARQRWFKFDDHEVSDISVSSVKSSAAYILFYTSLGPRVTDVAT
As for B1, the binding result was “binds”.
